According to paper doi:10.1101/2020.10.05.325951:
No constants are given. Whether binding was seen depends on the method and setting. Some results given as binding are weak or reduced against the parent protein; the word gives no strength.

Sequences of proteins named here, by UniProt entry; tags and fusion partners are left off. A change or cut given only in a name is not applied to a line headed by its entry.
UniProt Q9EP80: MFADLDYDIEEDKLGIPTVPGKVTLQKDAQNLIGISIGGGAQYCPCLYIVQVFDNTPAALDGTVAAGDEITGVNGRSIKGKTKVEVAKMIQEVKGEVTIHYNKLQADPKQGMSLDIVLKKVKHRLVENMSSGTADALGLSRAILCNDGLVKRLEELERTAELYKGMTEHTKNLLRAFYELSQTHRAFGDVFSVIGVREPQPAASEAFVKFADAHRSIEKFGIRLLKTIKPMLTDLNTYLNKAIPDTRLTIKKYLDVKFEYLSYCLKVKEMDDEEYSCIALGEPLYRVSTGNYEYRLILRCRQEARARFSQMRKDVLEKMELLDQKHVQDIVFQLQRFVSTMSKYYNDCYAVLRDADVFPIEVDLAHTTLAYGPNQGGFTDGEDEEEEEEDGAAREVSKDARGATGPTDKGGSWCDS

Tests used:
Test in all cases: fluorescence polarisation
[1] = target: PICK1 R185Q, purified full-length (UniProt Q9EP80)
[2] = target: PICK1 WT (protein interacting with C kinase 1), purified full-length (UniProt Q9EP80)
[3] = target: PICK1 R197Q, purified full-length (UniProt Q9EP80)
[4] = target: PICK1 R247H, purified full-length (UniProt Q9EP80)

Measured: binding

RGEVRQFTLRHWLKV [DATC15 peptide (15-residue peptide from the C-terminal region of the human dopamine transporter)]
binds: all assays above
